Results are given in words; binding and its absence hold for the method and conditions named. For some assays here: Binding seen in cells or lysates may run through a third protein. Some results given as binding are weak or reduced against the parent protein; the word gives no strength.
Legend:
[1] = biological target: T1, SHARPIN (Shank-associated RH domain interacting protein) (human (endogenous in A549)) (UniProt Q9H0F6); experiment: co-IP; A549 cell lysates, endogenous proteins; protein A-agarose beads with SHARPIN or PRMT5 rabbit antibody, 4°C overnight, no-antibody (NA) control; western blot
T1 sequence: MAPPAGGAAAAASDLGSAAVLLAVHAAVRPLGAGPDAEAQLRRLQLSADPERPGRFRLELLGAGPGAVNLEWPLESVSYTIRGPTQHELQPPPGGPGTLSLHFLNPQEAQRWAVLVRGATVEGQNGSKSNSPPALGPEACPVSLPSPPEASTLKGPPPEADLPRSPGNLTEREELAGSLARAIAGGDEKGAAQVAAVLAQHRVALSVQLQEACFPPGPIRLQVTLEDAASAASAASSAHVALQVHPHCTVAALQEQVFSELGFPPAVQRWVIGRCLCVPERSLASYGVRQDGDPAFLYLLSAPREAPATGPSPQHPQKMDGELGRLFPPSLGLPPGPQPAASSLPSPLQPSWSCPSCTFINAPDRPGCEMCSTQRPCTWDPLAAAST

Protein sequences, listed by entry. Tags and fused reporters are not part of them.
UniProt Q9UBL3: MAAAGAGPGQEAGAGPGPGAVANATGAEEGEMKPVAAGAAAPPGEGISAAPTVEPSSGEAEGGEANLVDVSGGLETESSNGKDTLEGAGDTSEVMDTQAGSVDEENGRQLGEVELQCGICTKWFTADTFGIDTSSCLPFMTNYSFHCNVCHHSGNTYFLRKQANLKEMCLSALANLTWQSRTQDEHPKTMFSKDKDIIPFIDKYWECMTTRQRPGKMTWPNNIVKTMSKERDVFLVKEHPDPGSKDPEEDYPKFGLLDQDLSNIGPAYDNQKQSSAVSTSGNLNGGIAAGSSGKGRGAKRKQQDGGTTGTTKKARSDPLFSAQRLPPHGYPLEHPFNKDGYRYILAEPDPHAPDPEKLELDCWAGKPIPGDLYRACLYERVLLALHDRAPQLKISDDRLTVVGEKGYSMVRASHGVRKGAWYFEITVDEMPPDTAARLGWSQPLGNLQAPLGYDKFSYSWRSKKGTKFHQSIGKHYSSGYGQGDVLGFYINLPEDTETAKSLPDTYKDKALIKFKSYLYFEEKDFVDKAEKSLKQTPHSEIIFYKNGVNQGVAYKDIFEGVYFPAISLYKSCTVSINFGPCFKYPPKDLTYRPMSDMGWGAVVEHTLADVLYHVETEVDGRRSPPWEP
UniProt O14744: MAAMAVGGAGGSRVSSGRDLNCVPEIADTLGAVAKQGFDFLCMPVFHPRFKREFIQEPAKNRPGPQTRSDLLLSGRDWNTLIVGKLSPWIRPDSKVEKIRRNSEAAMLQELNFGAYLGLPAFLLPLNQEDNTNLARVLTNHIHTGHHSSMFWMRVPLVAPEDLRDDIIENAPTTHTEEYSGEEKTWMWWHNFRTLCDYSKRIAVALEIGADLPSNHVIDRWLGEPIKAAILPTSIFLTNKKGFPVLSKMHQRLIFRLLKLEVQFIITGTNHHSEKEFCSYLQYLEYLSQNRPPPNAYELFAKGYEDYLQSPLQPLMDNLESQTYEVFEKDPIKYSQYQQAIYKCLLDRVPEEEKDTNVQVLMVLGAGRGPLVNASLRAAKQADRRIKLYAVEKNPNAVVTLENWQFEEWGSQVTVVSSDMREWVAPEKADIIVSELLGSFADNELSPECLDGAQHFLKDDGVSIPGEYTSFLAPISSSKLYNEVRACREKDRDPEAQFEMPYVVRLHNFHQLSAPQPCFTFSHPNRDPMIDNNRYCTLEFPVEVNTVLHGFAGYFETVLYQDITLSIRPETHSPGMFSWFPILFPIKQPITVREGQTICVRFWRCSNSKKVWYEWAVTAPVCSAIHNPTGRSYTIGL

[2] = biological target: ASH2 (human (endogenous in A549)) (UniProt Q9UBL3); experiment: Re-ChIP (sequential chromatin immunoprecipitation); A549 cells cross-linked with 1% formaldehyde, sonicated; 1st round pull down with ASH2, WDR5, HCFC1 or RBBP5 antibody, 2nd round with PRMT5 antibody; read out by qPCR of VIM (-1 kb); also in cells depleted of GFP (ctr) or SHARPIN

binding [1]: binds
binding [2]: binds
Substance: PRMT5 (Protein arginine methyltransferase 5) (from UniProt O14744 1-637) (enzyme)

Source: paper PMC5589623
